# Some of the results follow.
# Key:
# Assay in all cases: glycan array binding signal (z-score within array); higher = stronger binding
# Conditions in all cases: glycan notation: IUPAC condensed, linker removed
# [1] = target: Neu5Ac(a2-8)Neu5Ac
# In short: (§1)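 From the Consortium for Functional Glycomics database, 3228 arrays were curated, keeping only those whose protein sequence was available. Binding is given as a within-array Z-score averaged across arrays sharing a protein sequence and across linkers. Negative Z-scores can be read as non-binding.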
# [2] = target: Neu5Ac(a2-8)Neu5Ac(a2-3)Gal(b1-4)Glc
# In short: as §1
# [3] = target: Neu5Ac(a2-8)Neu5Ac(a2-3)[GalNAc(b1-4)]Gal(b1-4)Glc
# In short: as §1
# [4] = target: Neu5Ac(a2-8)Neu5Ac(a2-8)Neu5Ac
# In short: as §1
# [5] = target: Neu5Ac(a2-8)Neu5Ac(a2-8)Neu5Ac(a2-3)Gal(b1-4)Glc
# In short: as §1
# [6] = target: Neu5Ac(a2-8)Neu5Ac(a2-8)Neu5Ac(a2-3)[GalNAc(b1-4)]Gal(b1-4)Glc
# In short: as §1
# [7] = target: Neu5Ac(a2-8)Neu5Ac(a2-8)Neu5Ac(a2-8)Neu5Ac(a2-3)[GalNAc(b1-4)]Gal(b1-4)Glc
# In short: as §1
# [8] = target: Neu5Ac(b2-6)Gal(b1-4)GlcNAc
# In short: as §1
# [9] = target: Neu5Ac(b2-6)GalNAc
# In short: as §1
# [10] = target: Neu5Ac9Ac(a2-3)Gal(b1-3)GlcNAc
# In short: as §1
# [11] = target: Neu5Ac9Ac(a2-3)Gal(b1-4)GlcNAc
# In short: as §1
# [12] = target: Neu5Ac9Ac(a2-6)Gal(b1-4)GlcNAc
# In short: as §1
# [13] = target: Neu5Gc(a2-3)Gal(b1-3)GlcNAc
# In short: as §1
# [14] = target: Neu5Gc(a2-3)Gal(b1-3)[Fuc(a1-4)]GlcNAc
# In short: as §1
# [15] = target: Neu5Gc(a2-3)Gal(b1-4)Glc
# In short: as §1
# [16] = target: Neu5Gc(a2-3)Gal(b1-4)GlcNAc
# In short: as §1
# [17] = target: Neu5Gc(a2-3)Gal(b1-4)[Fuc(a1-3)]GlcNAc
# In short: as §1
# [18] = target: Neu5Gc(a2-6)Gal(b1-4)GlcNAc
# In short: as §1
# [19] = target: Neu5Gc(a2-6)GalNAc
# In short: as §1
# [20] = target: Neu5Gc(b2-6)Gal(b1-4)GlcNAc
# In short: as §1
binder,measurement,setting,value
"PEB3 (Campylobacter jejuni), Q0PBL7 (protein) MKKIITLFGACALAFSMANADVNLYGPGGPHTALKDIANKYSEKTGVKVNVNFGPQATWFEKAKKDADILFGASDQSALAIASDFGKDFNVSKIKPLYFREAIILTQKGNPLKIKGLKDLANKKVRIVVPEGAGKSNTSGTGVWEDMIGRTQDIKTIQNFRNNIVAFVPNSGSARKLFAQDQADAWITWIDWSKSNPDIGTAVAIEKDLVVYRTFNVIAKEGASKETQDFIAYLSSKEAKEIFKKYGWRE",glycan array binding signal (z-score),[1],-0.068
same,glycan array binding signal (z-score),[2],0.455
same,glycan array binding signal (z-score),[3],-0.206
same,glycan array binding signal (z-score),[4],-0.561
same,glycan array binding signal (z-score),[5],-0.199
same,glycan array binding signal (z-score),[6],0.3
same,glycan array binding signal (z-score),[7],-0.3
same,glycan array binding signal (z-score),[8],0.531
same,glycan array binding signal (z-score),[9],-0.278
same,glycan array binding signal (z-score),[10],-0.317
same,glycan array binding signal (z-score),[11],0.586
same,glycan array binding signal (z-score),[12],-1.36
same,glycan array binding signal (z-score),[13],-0.134
same,glycan array binding signal (z-score),[14],-0.09
same,glycan array binding signal (z-score),[15],-0.736
same,glycan array binding signal (z-score),[16],-0.701
same,glycan array binding signal (z-score),[17],-1.07
same,glycan array binding signal (z-score),[18],0.649
same,glycan array binding signal (z-score),[19],-0.1
same,glycan array binding signal (z-score),[20],0.27

# An excerpt of these results, as tab-separated lines.
binder	measurement	setting	value
PEB3 (Campylobacter jejuni), Q0PBL7 (protein) MKKIITLFGACALAFSMANADVNLYGPGGPHTALKDIANKYSEKTGVKVNVNFGPQATWFEKAKKDADILFGASDQSALAIASDFGKDFNVSKIKPLYFREAIILTQKGNPLKIKGLKDLANKKVRIVVPEGAGKSNTSGTGVWEDMIGRTQDIKTIQNFRNNIVAFVPNSGSARKLFAQDQADAWITWIDWSKSNPDIGTAVAIEKDLVVYRTFNVIAKEGASKETQDFIAYLSSKEAKEIFKKYGWRE	glycan array binding signal (z-score)	[1]	-0.068
same	glycan array binding signal (z-score)	[11]	0.586

# — the supplement of paper PMC8728848
